Measured values as given in the supplement of paper PMC4604168 (melanoma cell lines).
This is one part of the list. Repeats are few or missing, and single values can be far off.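 The apoptosis fraction was the count of cleaved-PARP antibody-stained nuclei relative to all DNA-stained nuclei, imaged in 1,536-well plates. Screening doses were set so most cells survived, and baseline and induced cleaved-PARP levels vary greatly across cell lines.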

The compounds below were run on SkMel5 (assay: cleaved PARP positive nuclei fraction relative to DMSO control; melanoma cells; higher = more apoptosis). Details: library dose: low library concentration; 72 h.
In the case of `Cn1cc(C2=C(c3cn(C4CCN(Cc5ccccn5)CC4)c4ccccc34)C(=O)NC2=O)c2ccccc21` [Enzastaurin] + O=C(Oc1ccc([N+](=O)[O-])cc1)N1CCC(C(O)(c2ccc3c(c2)OCO3)c2ccc3c(c2)OCO3)CC1 [JZL184] (first compound 0.8 µM, partner dose 1 µM), the “cleaved PARP positive nuclei fraction” value is reported as 168%. In the case of `N.N.[Cl][Pt][Cl]` [cisplatin] + CO[C@@H]1[C@H](N(C)C(=O)c2ccccc2)C[C@H]2O[C@]1(C)n1c3ccccc3c3c4c(c5c6ccccc6n2c5c31)C(=O)NC4 [Midostaurin] (first compound 1.6 µM, partner dose 0.08 µM), the “cleaved PARP positive nuclei fraction” value is reported as 226%. With `CCN(CC)CCNC(=O)c1c(C)[nH]c(/C=C2\C(=O)Nc3ccc(F)cc32)c1C` [sunitinib] + O=C(Oc1ccc([N+](=O)[O-])cc1)N1CCC(C(O)(c2ccc3c(c2)OCO3)c2ccc3c(c2)OCO3)CC1 [JZL184] (first compound 0.4 µM, partner dose 1 µM) the “cleaved PARP positive nuclei fraction” value was 69.7%. For `N.N.[Cl][Pt][Cl]` [cisplatin] + Oc1cc(-c2nc(-c3ccccc3)[nH]c2-c2ccncc2)ccc1Cl [L779450] (first compound 1.6 µM, partner dose 0.2 µM), the “cleaved PARP positive nuclei fraction” value was 76.4%. For `Clc1ccc(Nc2nnc(Cc3ccncc3)c3ccccc23)cc1` [vatalanib] + O=C(Oc1ccc([N+](=O)[O-])cc1)N1CCC(C(O)(c2ccc3c(c2)OCO3)c2ccc3c(c2)OCO3)CC1 [JZL184] (first compound 2 µM, partner dose 1 µM), the “cleaved PARP positive nuclei fraction” value was 39.6%. `C[As](C)SC[C@H](NC(=O)CC[C@H](N)C(=O)O)C(=O)NCC(=O)O` [Darinaparsin] + OCCn1cc(-c2cnc3nnn(Cc4ccc5ncccc5c4)c3n2)cn1 [PF04217903] (first compound 0.4 µM, partner dose 1 µM) was tested, and the “cleaved PARP positive nuclei fraction” value was 34.4%. For `C[C@@H](N)c1ccc(C(=O)Nc2ccnc3[nH]ccc23)cc1` + Cc1cc(SCc2sc(-c3ccc(C(F)(F)F)c(F)c3)nc2C)ccc1OCC(=O)O [GW0742] (first compound 0.4 µM, partner dose 2 µM), the “cleaved PARP positive nuclei fraction” value was 282%. In the case of `N.N.[Cl][Pt][Cl]` [cisplatin] + Cn1cncc1[C@@](N)(c1ccc(Cl)cc1)c1ccc2c(c1)c(-c1cccc(Cl)c1)cc(=O)n2C [tipifarnib] (first compound 1.6 µM, partner dose 0.01 µM), the “cleaved PARP positive nuclei fraction” value is reported as 142%.
